Experimental data: PubChem BioAssay AID1224830 (NIAID, 2016)
Purpose: 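Genes whose knock-down alters the TNF-alpha reporter response to LPS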 (primary screen). System: human THP-1 monocytic leukaemia cells, TNF dual-luciferase reporter clone, PMA-differentiated to macrophage-like cells. Reagent: siRNA pool against human genes, 50 nM. Timing: LPS for 4 h, given about 3 days after siRNA transfection. Challenge: bacterial LPS (TLR4 ligand), 10 ng/ml. Detection: 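TNF firefly reporter luminescence divided by renilla, normalised to the plate median, then turned into a robust z-score for each replicate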. Reading the numbers: TNF reporter robust z-score: higher = stronger TNF reporter response to LPS. Rule for the call: 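a well is active when its z-score exceeds 2.8 or falls below -1.5; control wells carry no call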.
Shown is one part, drawn at random, of about 18,000 reagents. Over the whole deposit, about 2,900 (16%) are marked active. 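Calls are made per well; low scores hint the gene aids the LPS response, high scores that it dampens it.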 A number with no mark means an inactive call. Repeated entries: four replicate wells of each siRNA pool.

target | TNF reporter robust z-score
TENT2 | 1.33
TENT2 | -0.27
TENT2 | -0.19
TENT2 | 0.94
SBSPON | 0.78
SBSPON | 1.81
SBSPON | 0.86
SBSPON | 1.06
ZCCHC24 | 2.28
ZCCHC24 | 1.22
ZCCHC24 | 1.13
ZCCHC24 | 6.93 (active)
EEF2K | -1.29
EEF2K | -0.93
EEF2K | -0.89
EEF2K | -1.14
IDNK | 1.35
IDNK | -0.08
IDNK | 4.19 (active)
IDNK | 0.88
NR4A2 | 1.96
NR4A2 | 1.08
NR4A2 | 1.6
NR4A2 | 0.57
TAF7 | -0.92
TAF7 | 0.67
TAF7 | -0.24
TAF7 | 1.13
ARGLU1 | 0.04
ARGLU1 | 0.4
ARGLU1 | -0.99
ARGLU1 | -0.04
XRCC5 | 0.49
XRCC5 | 1.08
XRCC5 | 0.23
XRCC5 | 0.78
CLEC18C | 1.63
CLEC18C | 1.26
CLEC18C | 0.07
CLEC18C | 1.72
PUF60 | 2.93 (active)
PUF60 | 2.72
PUF60 | 0.95
PUF60 | 2.7
MACO1 | 1.65
MACO1 | 1.43
MACO1 | 0.48
MACO1 | 2.04
FNDC11 | -0.42
FNDC11 | -0.07
FNDC11 | 0.06
FNDC11 | 0.02
ACYP1 | 0.83
ACYP1 | 0.72
ACYP1 | -0.09
ACYP1 | 0.67
RARRES1 | 1.14
RARRES1 | 0.79
RARRES1 | 1.74
RARRES1 | 0.73
P3H4 | 1.04
P3H4 | 1.28
P3H4 | 0.81
P3H4 | 0.73
H2AZ2 | 0.08
H2AZ2 | 0.86
H2AZ2 | -0.13
H2AZ2 | 0.98
GABRG2 | 1.93
GABRG2 | 1.88
GABRG2 | -0.23
GABRG2 | -0.92
PRKN | -1.58 (active)
PRKN | -0.75
PRKN | -0.12
PRKN | -0.59
PTK7 | 0.2
PTK7 | 0.24
PTK7 | 0.02
PTK7 | 1.07
OR6C74 | -0.27
OR6C74 | -0.64
OR6C74 | -0.22
OR6C74 | 0.17

Records listed so far whose gene name begins with M or m:
target | TNF reporter robust z-score
MACO1 | 1.65
MACO1 | 1.43
MACO1 | 0.48
MACO1 | 2.04

The results go on.
target | TNF reporter robust z-score
CHTF18 | 0.97
CHTF18 | 0.65
CHTF18 | 1.82
CHTF18 | 0.23
COL18A1-AS1 | -0.24
COL18A1-AS1 | 0.29
COL18A1-AS1 | 1.05
COL18A1-AS1 | 0.59
SUSD1 | 1.32
SUSD1 | 3.15 (active)
SUSD1 | 1.83
SUSD1 | 1.86
NCKAP1L | 0.79
NCKAP1L | 0.35
NCKAP1L | 0.71
NCKAP1L | 0.99
L1CAM | -0.69
L1CAM | -0.72
L1CAM | -1.65 (active)
L1CAM | 0.05
NRXN3 | -1.37
NRXN3 | 0.02
NRXN3 | 0.07
NRXN3 | -0.22
TNFAIP3 | -0.31
TNFAIP3 | 0.1
TNFAIP3 | -0.25
TNFAIP3 | 0.31
BTC | 1.3
BTC | 3.57 (active)
BTC | -0.18
BTC | 0.2
NUP188 | -1.28
NUP188 | -1.23
NUP188 | -1.18
NUP188 | -1.36
NTS | 2
NTS | 1.53
NTS | 0.16
NTS | -0.67
TFDP1 | -0.49
TFDP1 | 0.97
TFDP1 | 0.6
TFDP1 | 1.04
MT1E | 0.64
MT1E | 0.82
MT1E | 0.3
MT1E | 0.73
GABARAPL1 | 0.74
GABARAPL1 | 1.92
GABARAPL1 | 4.03 (active)
GABARAPL1 | 1.14
TMED1 | 1.01
TMED1 | 2.34
TMED1 | 1.68
TMED1 | 0.06
